PMC11543299

Target: GST-JrVIP1 (Juglans regia (walnut))
Assay: pull-down; GST or GST-JrVIP1 immobilized on glutathione HiCap matrix, incubated with JrPP2A-His; western blot with anti-His antibody; performed three times

Binder	binding
JrPP2A07-His (protein, UniProt A0A2I4EZA1 1-305) MSDLDRQIEQLKKCEPLKESEVKALCLKAMEILVEESNVQRVDAPVTICGDIHGQFYDMKELFKVGGDCPKTNYLFLGDFVDRGFYSVETFLLLLALKVRYPDRITLIRGNHESRQITQVYGFYDECLRKYGSVNVWRYCTDIFDYLSLSALIENKIFSVHGGLSPAISTLDQIRTIDRKQEVPHDGAMCDLLWSDPEDIMDGWGVSPRGAGYLFGGSVVTSFNHSNNIDYICRAHQLVMEGYKWMFNSQIVTVWSAPNYCYRCGNVAAILELDENLNKQFRVFDAAPQESRGTPAKKPAPDYFL	binds
JrPP2A09-His (protein, UniProt A0A2I4G9N5 1-476) MYSGSSDGESHEAVQRRIPPAASMPWVRNLRRFIGSGDGLGSEALMELETKRILLDIFKEKQQKSAEAGTIPSFYKKKPEEGSISHRVQRLAKYRFLKKQSDLLLNADDLDAMWFCLRENCVIDDATGAEKMNYEDFCHIASVCTEQIGPKCRRFFSPSNFMKFEKDESGRIAILPFYLYVMRTVSLTQARIDMSELDEDSDGFLQAHEMEAYIRGLIPNLAQLRDMPAAFVQMYCRIAAHKFFFFCDPHRRGKACIKKVLLSNCLQELMELHQESEEEVTDTEQAENWFSLTSAQRICDMFLALDKDMNGTLSKQELREYADGTLTEIFIERVFDEHVRRGKSGGGNAREMDFESFLDFVLALENKDTPEGLTYLFRCLDLNGRGFLTTADIHSLFRDVHQKWIDGGNYELCIEDVRDEIWDMVKPADSLRITLADLLNCKQGGTVASMVIDVRGFWAHDNRENLLQEEEEPEEE	binds

These are yes or no findings as the source states them, for the method shown. Binding seen in cells or lysates may run through a third protein. A result given as binding can be weak or reduced; the word gives no strength. Sequences can lack the tags named with a protein.
